# According to the supplement of paper PMC3334620:
# Whole data set: some 33,000 sequences, median “E-score (-0.5 to 0.5)” near -0.0014, cut for the highest 2% near 0.25. Some of the results follow.
# Target: T1, Cad1 (UniProt P24813)
# T1 sequence: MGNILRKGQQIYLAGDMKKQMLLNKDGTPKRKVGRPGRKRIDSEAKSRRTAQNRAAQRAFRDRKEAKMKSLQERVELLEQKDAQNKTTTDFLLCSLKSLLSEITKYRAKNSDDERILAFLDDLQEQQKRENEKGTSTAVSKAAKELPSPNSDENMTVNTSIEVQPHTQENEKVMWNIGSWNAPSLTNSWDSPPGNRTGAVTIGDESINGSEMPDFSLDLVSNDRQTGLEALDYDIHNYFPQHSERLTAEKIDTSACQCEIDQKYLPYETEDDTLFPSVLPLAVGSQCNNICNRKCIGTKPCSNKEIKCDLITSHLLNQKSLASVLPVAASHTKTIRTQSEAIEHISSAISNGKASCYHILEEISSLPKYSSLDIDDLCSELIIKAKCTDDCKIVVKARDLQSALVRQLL
# Test: PBM E-score (8-mer binding enrichment) (E-score (-0.5 to 0.5)); higher = stronger / more preferred TF binding
# Conditions: protein concentration: 100 nM; construct: GST-full length
# Protocol: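 Universal 'all 10-mer' protein binding microarrays (Agilent AMADID 015681) probed with GST-tagged S. cerevisiae TFs (full-length or DBD) made by in vitro transcription/translation (PURExpress), about 100-200 nM. Bound TF was detected with fluorescent anti-GST. Each ungapped 8-mer (which stands for itself and its reverse complement) is scored by the PBM enrichment score (E-score), a modified Wilcoxon-Mann-Whitney statistic from -0.5 to +0.5, computed with the Universal PBM Analysis Suite. Scale: above 0.35 generally sequence-specific binding.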
row,Sequence,PBM E-score
1,CACAATTC,0.108
2,AGCGAGTC,-0.121
3,AGTGCAAG,0.2
4,AACCGAGC,0.075
5,ATGGCCTC,-0.0388
6,GCCCACGA,-0.0771
7,CTGGCAAA,0.106
8,ATCTTCGA,0.111
9,AATACCCG,-0.0354
10,ACTATGTA,-0.0426
11,ATGACTTG,-0.0608
12,ACTCCAAT,0.0079
13,GCGTGAAA,0.141
14,CTGAACTC,-0.133
15,TCCTCCAA,-0.187
16,ATGACTGC,-0.0169
17,GAGTGTGC,0.0246
18,GTGCGATA,-0.0795
19,CTTCATCA,0.198
20,CGATAGGC,-0.0634
21,ATCAGGGC,-0.0821
22,GCGTGCGA,0.0461
23,GGAGGAAA,-0.0105
24,GTGCTGCA,0.0818
25,CGTGAAAA,0.202

# No new results follow: an excerpt of the list.
row,Sequence,PBM E-score
16,ATGACTGC,-0.0169
17,GAGTGTGC,0.0246
18,GTGCGATA,-0.0795
19,CTTCATCA,0.198
20,CGATAGGC,-0.0634

# Next entries:

row,Sequence,PBM E-score
1,CCCGGAGA,0.0241
2,GCTGACGA,0.243
3,AGGTATCC,-0.0007
4,ACATACAC,0.0267
5,CAAGAATG,-0.131
6,GATAACAC,0.089
7,CAGAACTC,0.0173
8,AATGATGG,0.0938
9,AATTCCCG,0.104
10,AGGGACTA,-0.132
11,ATGGTGAC,-0.161
12,GTAGTAAC,-0.0198
13,CCCTATAG,-0.143
14,AACGCCGC,-0.00077
15,CTTACAAC,0.118
16,CTGAGCAG,0.0755
17,CGTTTACC,0.124
18,GATCCAAC,-0.109
19,GCCGTCAC,-0.0462
20,AGAATATG,0.129
21,CTATTCTA,0.122
22,CAGTAGAA,-0.0744
23,AACTTCCT,0.0129
24,CGGGTGAC,-0.0446
25,GCGACGCC,-0.0999

row,Sequence,PBM E-score
1,ACTGGGGG,-0.357
2,AATTGCGG,-0.00661
3,ATAAAGCC,-0.0352
4,GTTCGAGA,0.102
5,CACAAGGA,-0.0533
6,ACAGCATG,-0.053
7,AATAGCCT,-0.18
8,CCAGTGTA,-0.019
9,GCTTTAGA,-0.143
10,AGGATATA,0.136
11,GTCGGACA,0.0907
12,TGGAGACA,0.047
13,CCATCTGA,-0.00898
14,CAAGCAAA,0.0203
15,TAAGCTTA,0.378
16,TTCAAAAA,-0.0855
17,CACACATC,-0.164
18,ACTGCATG,0.0724
19,TCAGTTAA,-0.0647
20,ACAGCACT,0.173
21,TATACATA,0.0239
22,CGAAGCAC,-0.0455
23,ACCTCGCC,-0.0962
24,AAAACTGG,0.015
25,CAATGTTA,0.0664

row,Sequence,PBM E-score
1,CGGGACAC,-0.0454
2,CACACAAG,0.013
3,CGTCGTTA,0.0352
4,AACTAATT,0.217
5,GCTTTCTA,0.241
6,GGCTGTTA,0.0352
7,GTAGAACA,-0.179
8,GGCGACCA,-0.169
9,CGTGTTGC,0.0661
10,CGATCGCG,0.122
11,ACGGACAA,0.244
12,AGCAAACT,0.125
13,AGTAACTG,0.0501
14,AAAATAGC,-0.0928
15,CAGCCTCA,-0.0913
16,ACTTTTTC,0.0204
17,CCACGTCC,-0.193
18,ACGACTTC,-0.0241
19,GGCGTACA,-0.00166
20,ATATTCAC,0.129
21,CTGGGCAA,-0.00151
22,ACTGGTAG,-0.146
23,CAATTTAA,0.156
24,CACTTATC,0.128
25,AAGACGCG,-0.0357

row,Sequence,PBM E-score
1,ACATCCGA,0.058
2,TAATGACA,0.139
3,ACACAATG,0.0841
4,CAAGGGGC,-0.148
5,GAGGCACC,-0.33
6,ACCTGTTG,-0.0789
7,CCGCTACG,-0.165
8,CGGTTCTC,-0.0464
9,CGCAGACC,-0.146
10,ATCTTCTG,-0.113
11,CCCGACGC,-0.068
12,AGATAGCC,-0.226
13,CCGATAGC,0.0126
14,AGGAGTAT,-0.124
15,AGTAACGG,0.033
16,GGGATCAC,-0.211
17,CGGCCCTC,-0.241
18,AACATGGA,0.0132
19,GATGTGCC,-0.146
20,GGGATAGA,-0.267
21,GACCTGGC,-0.154
22,CAGAATTC,0.121
23,AACCCACA,0.137
24,CCCGATCA,-0.165
25,CACAGTGG,-0.0816

row,Sequence,PBM E-score
1,GGACCGAC,-0.0271
2,AAGAAGAC,-0.114
3,GCACTCGC,0.00899
4,GCAGCGGA,-0.0753
5,AAGTGACA,0.161
6,CACCGCAA,0.23
7,GCTCCTCC,-0.241
8,AGACAAAA,0.0349
9,ATGCTGGA,0.0416
10,GAGCTTCC,0.123
11,GGTGTTAC,-0.0578
12,AACACGAC,0.102
13,AATCTCAA,0.0961
14,CCACCTCA,-0.0922
15,ACTTAGCA,0.0611
16,CACAGGAA,-0.168
17,ACAATCGG,0.195
18,GCATTGAC,-0.0478
19,CCTCCGCA,-0.125
20,GGGTGTGA,-0.212
21,CATCCATA,0.0846
22,GCTAGCAC,0.025
23,TACCCATA,-0.121
24,CCAGTGGG,-0.318
25,GGTACTTA,-0.0473

# Fetched one by one from the list above, 6 records:
row,Sequence,PBM E-score
13,AATCTCAA,0.0961
9,ATGCTGGA,0.0416
7,GCTCCTCC,-0.241
2,AAGAAGAC,-0.114
24,CCAGTGGG,-0.318
23,TACCCATA,-0.121

# Additional records follow.

row,Sequence,PBM E-score
1,ACCTTTGC,-0.0613
2,ATAGAGTC,-0.148
3,CCGTAGCA,-0.0883
4,CATTGACG,0.0193
5,GAACGAAA,-0.0129
6,AGGTTAAC,-0.00764
7,CCGTCCGA,-0.0947
8,ACACGTCC,0.0288
9,AGAGTATG,-0.0542
10,CCAATTTC,0.105
11,CGATACAG,0.0253
12,AAGATCGC,0.0452
13,CCGGGAAG,-0.0638
14,AAATCGCT,0.00908
15,CAGTAGCC,-0.252
16,CCGCCGAG,0.0731
17,ATCTTACG,-0.0441
18,AAGTTTGG,0.124
19,AATAGAGG,-0.154
20,ATTAACGA,0.178
21,CGACAACG,0.169
22,AACTGCGG,0.0204
